Assay results taken from PubChem BioAssay AID2685 (National Center for Advancing Translational Sciences (NCATS), 2010).
The other results are listed elsewhere or left out. Further columns of the screen follow, without active or inactive calls. Most of these compounds were active or inconclusive in the main read-out, so they are no random draw. Words in brackets tell the shape of the fitted curve; partial curves, single points and poor fits give uncertain potencies.

Assay: qHTS Assay for Lipid Storage Modulators in Drosophila S3 Cells;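 on cell number change: cells counted by Cell Tracker Red CMTPX staining in the red channel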
Conditions: BODIPY lipid droplet fluorescence, 18-24 h; for cell number change: measured here: cell count max response, cells fed with added oleic acid
Outline: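 Laser-scanning cytometry quantifies lipid droplet accumulation (500–530 nm total intensity; droplet/cell object ratio) in oleic acid-fed (400 uM added) Drosophila S3 cells treated with a concentration series. 20 uM Triacsin C defined 100% inhibition.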

[1] = measured here: lipid fluorescence (Fed channel) AC50, cells fed with added oleic acid
[2] = measured here: cell number channel AC50, cells fed with added oleic acid

Question: For `[N-]=[N+]=NCCN1CCC(O)CCC1=O` (stereo not drawn), which cell number change is on record?
Answer: Its cell number change is 38.8%.

Question: And the AC50 [1]?
Answer: Its AC50 is 0.58 µM [rising, single point].

Question: Which cell number change does the source give for `CC12CCC(=O)C=C1CCC1C2CCC2(C)C(O)CCC12` (stereo not drawn) here?
Answer: The cell number change was -0.538%.

Question: And the AC50 [1]?
Answer: Its AC50 is 29.1 µM [falling, single point].

Question: With `Cn1c(C(=O)N2CCC3(CC2)OCCO3)cc2c(=O)n(C)c3ccccc3c21` as the compound, how does the cell number change read?
Answer: The cell number change was 89.3%.

Question: And the AC50 [2]?
Answer: Its AC50 is 8.2 µM [rising, partial curve].

Question: And the AC50 [1]?
Answer: The AC50 was 8.2 µM [rising, partial curve].

Question: With `O=C1/C(=C\c2ccncc2)N2CCC1CC2` as the compound, how does the cell number change read?
Answer: Its cell number change is 12.7%.

Question: And the AC50 [2]?
Answer: The AC50 was 4.11 µM [rising, single point].

Question: And the AC50 [1]?
Answer: Its AC50 is 2.59 µM [rising, single point].

Question: With `CCCCn1c(=O)c(C(=O)Nc2ccccc2C)c(O)c2ccccc21` as the compound, how does the cell number change read?
Answer: Its cell number change is 0.338%.

Question: What about the AC50 [1] of the same compound?
Answer: Its AC50 is 1.46 µM [rising, full curve].

Question: Which AC50 [2] does the source give for `CC(=O)OC(CC(=O)O)C[N+](C)(C)C` (stereo not drawn) here?
Answer: The AC50 was 20.6 µM [rising, single point].

Question: With `CN1CCN(Cc2cc(C(C)(C)C)c(O)c(C(C)(C)C)c2)CC1` as the compound, how does the cell number change read?
Answer: The cell number change was 10.8%.

Question: What about the AC50 [1] of the same compound?
Answer: The AC50 was 5.8 µM [falling, single point].

Question: For `O=P(CN1CCN(c2ccccc2)CC1)(N1CCCCC1)N1CCCCC1`, which AC50 [2] is on record?
Answer: Its AC50 is 1.16 µM [rising, full curve].

Question: And the AC50 [1]?
Answer: Its AC50 is 1.16 µM [rising, full curve].

Question: With `CC(C)c1c(CN(C)C(C)Cc2ccccc2)n(C)n(-c2ccccc2)c1=O` (stereo not drawn) as the compound, how does the cell number change read?
Answer: Its cell number change is 54%.

Question: What about the AC50 [2] of the same compound?
Answer: The AC50 was 14.6 µM [rising, partial curve].

Question: What about the AC50 [1] of the same compound?
Answer: Its AC50 is 8.2 µM [rising, partial curve].

Question: For `CCOC(=O)C1C(=O)N(C)C2(C)CC1c1cc(OC)ccc1O2` (stereo not drawn), which cell number change is on record?
Answer: Its cell number change is 17.5%.

Question: And the AC50 [1]?
Answer: The AC50 was 2.31 µM [falling, partial curve].

Question: Which cell number change does the source give for `Cc1cccc(-n2c(O)c(C)c(=O)[nH]c2=S)c1` here?
Answer: The cell number change was -22.3%.

Question: And the AC50 [1]?
Answer: The AC50 was 29.1 µM [falling, single point].

Question: Which AC50 [2] does the source give for `CN1CCN(P(=O)(c2ccccc2)c2nc3ccccc3s2)CC1` (stereo not drawn) here?
Answer: The AC50 was 6.51 µM [falling, full curve].

Question: Which cell number change does the source give for `Nc1ccccc1Cl` here?
Answer: The cell number change was 3.16%.

Question: What does the source list for `C/C(=N\N1CCCCCC1)c1c(O)n(-c2ccccc2)c(=O)[nH]c1=O`?
Answer: cell number change: -66.7%; AC50 [2]: 29.1 µM [falling, partial curve, poor fit]; AC50 [1]: 6.51 µM [falling, single point]

Question: Which cell number change does the source give for `COC(=O)C1=C(c2ccc(F)cc2OCc2ccccc2)C[C@@H]2CC[C@H]1N2C(=O)N1CCOCC1` here?
Answer: The cell number change was 11.8%.

Question: Which AC50 [1] does the source give for `CC1=C(C(=O)OC(C)C)[C@]2(C(=O)N(CC(N)=O)c3ccccc32)C(C#N)=C(N)O1` here?
Answer: Its AC50 is 16.4 µM [falling, single point].

Question: What does the source list for `Cc1c(N=Cc2c(O)n(Cc3ccccc3)c(=O)[nH]c2=O)c(=O)n(-c2ccccc2)n1C`?
Answer: cell number change: 1.09%; AC50 [1]: 7.31 µM [rising, partial curve, poor fit]

Question: For `Cc1ccccc1CCNCc1cc2cccc(C)c2[nH]c1=O`, which cell number change is on record?
Answer: The cell number change was -40.9%.

Question: And the AC50 [2]?
Answer: The AC50 was 11.6 µM [falling, partial curve].

Question: And the AC50 [1]?
Answer: The AC50 was 10.3 µM [falling, partial curve].

Question: Which cell number change does the source give for `O=C1NC(=O)N(c2ccccc2)C(=O)/C1=C/C=C/c1ccco1` here?
Answer: The cell number change was -32.6%.

Question: And the AC50 [2]?
Answer: The AC50 was 0.259 µM [falling, full curve, poor fit].

Question: And the AC50 [1]?
Answer: Its AC50 is 0.731 µM [falling, partial curve, poor fit].

Question: For `CC(C)(C#CC(=O)O)OOC(c1ccccc1)(c1ccccc1)c1ccccc1`, which cell number change is on record?
Answer: Its cell number change is 23.6%.

Question: What about the AC50 [1] of the same compound?
Answer: Its AC50 is 0.58 µM [falling, single point].

Question: What does the source list for `O=C(Nc1ccccc1)NC1CC2CCC(C1)N2` (stereo not drawn)?
Answer: cell number change: -2.23%; AC50 [1]: 1.3 µM [falling, full curve]

Question: With `Nc1c2c(nc3sc4c(c13)CCCCC4)CCCC2` as the compound, how does the cell number change read?
Answer: Its cell number change is 6.9%.

Question: What about the AC50 [2] of the same compound?
Answer: The AC50 was 0.103 µM [rising, full curve, poor fit].

Question: And the AC50 [1]?
Answer: Its AC50 is 3.66 µM [rising, single point].

Question: With `COC(=O)C1=C(c2ccc(-c3ccccc3)c(F)c2)C[C@@H]2CC[C@H]1N2C(=O)NC1CC1` as the compound, how does the cell number change read?
Answer: Its cell number change is -12.3%.

Question: What about the AC50 [1] of the same compound?
Answer: Its AC50 is 3.66 µM [rising, full curve, poor fit].

Question: With `Cc1nc2ccccc2c(=O)n1-c1cc(F)ccc1F` as the compound, how does the cell number change read?
Answer: The cell number change was 23.2%.

Question: For `Cc1ccc(S(=O)(=O)N2CN3CCN(C3)C2)cc1`, which cell number change is on record?
Answer: Its cell number change is -13.7%.

Question: And the AC50 [1]?
Answer: The AC50 was 6.51 µM [falling, single point].

Question: Which cell number change does the source give for `COc1cccc(CN2CCN(Cc3cccc(F)c3)CC2)c1` here?
Answer: Its cell number change is 6.99%.

Question: And the AC50 [1]?
Answer: Its AC50 is 0.58 µM [rising, full curve, poor fit].

Question: Which results are given for `COC(=O)C1=C(c2ccc(C(C)=O)cc2)C[C@@H]2CC[C@H]1N2C(=O)N1CCC(O)(c2ccc(Cl)cc2)CC1`?
Answer: cell number change: -6.32%; AC50 [1]: 0.184 µM [rising, partial curve]

Question: With `Oc1c(Cl)cc(Cl)cc1CN1CCN(Cc2ccccc2)CC1` as the compound, how does the cell number change read?
Answer: The cell number change was -24.1%.

Question: And the AC50 [1]?
Answer: The AC50 was 18.4 µM [falling, single point].

Question: Which cell number change does the source give for `Clc1ccc(CCC(Cn2ccnc2)Sc2c(Cl)cccc2Cl)cc1` (stereo not drawn) here?
Answer: Its cell number change is -71.8%.

Question: What about the AC50 [2] of the same compound?
Answer: The AC50 was 29.1 µM [falling, single point].

Question: And the AC50 [1]?
Answer: Its AC50 is 29.1 µM [falling, single point].

Question: Which AC50 [1] does the source give for `CC(=NCc1ccc2c(c1)OCO2)c1c(O)n(-c2ccc(C)cc2)c(=O)[nH]c1=O` here?
Answer: The AC50 was 2.06 µM [rising, single point].

Question: Which results are given for `O=C1CCN(C(=O)C(Cl)Cl)N1`?
Answer: cell number change: -10.3%; AC50 [1]: 0.82 µM [falling, full curve]

Question: Which results are given for `C=CCn1c(O)c(C(CC)=Nc2ccc(N(CC)CC)cc2)c(=O)[nH]c1=O`?
Answer: cell number change: 9.19%; AC50 [1]: 16.4 µM [rising, single point]

Question: Which cell number change does the source give for `COc1ccc(F)cc1C(=O)C1CCCN(Cc2ccc(O)cc2)C1` (stereo not drawn) here?
Answer: Its cell number change is -11.4%.

Question: Which AC50 [2] does the source give for `Nc1c(C(=O)OCc2ccccc2)c2nc3ccccc3nc2n1Cc1cccs1` here?
Answer: Its AC50 is 0.651 µM [rising, full curve].

Question: And the AC50 [1]?
Answer: The AC50 was 1.3 µM [rising, full curve].

Question: What does the source list for `O=C1NC(=O)N(c2ccccc2)C(=O)/C1=C/c1ccc([N+](=O)[O-])s1`?
Answer: cell number change: -7.24%; AC50 [2]: 0.0651 µM [falling, full curve, poor fit]

Question: Which cell number change does the source give for `COc1ccc(OCC(=O)N2CCN(C/C=C/c3ccccc3)CC2)cc1` here?
Answer: The cell number change was -3.5%.

Question: And the AC50 [2]?
Answer: The AC50 was 0.00461 µM [rising, full curve, poor fit].

Question: Which AC50 [1] does the source give for `Cc1nc2ccccc2c(=O)n1-c1ccc(C(=O)O)cc1` here?
Answer: The AC50 was 0.0058 µM [rising, full curve, poor fit].
